Measured values: article PMC7862700
This is a selection; strong and weak results do not stand in their true shares. At the low end of the ranking the order means little.

Amino acid sequences for entries named in this document (tags omitted). A change or cut given only in a name is not applied to a line headed by its entry.
UniProt O43186: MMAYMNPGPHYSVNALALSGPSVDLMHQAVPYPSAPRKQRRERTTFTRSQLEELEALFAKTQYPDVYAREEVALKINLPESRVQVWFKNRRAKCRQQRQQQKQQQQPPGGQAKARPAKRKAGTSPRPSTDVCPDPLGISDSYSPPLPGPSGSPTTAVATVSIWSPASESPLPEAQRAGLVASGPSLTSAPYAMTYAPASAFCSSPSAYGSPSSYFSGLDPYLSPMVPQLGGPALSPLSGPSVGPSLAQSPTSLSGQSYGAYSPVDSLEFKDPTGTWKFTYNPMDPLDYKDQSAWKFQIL

Biological target: CRX (UniProt O43186)
Experiment: DAPPL (digital affinity profiling via proximity ligation, sequencing)
Settings: 10 mM Tris-HCl pH 7.5, 50 mM NaCl, 1 mM DTT, 4% glycerol, room temperature, 30 min; GST-TFs on glutathione beads, 16-mer random dsDNA library, 0.1% …; high values mean tight binding; double strand, one strand shown; scale: fold enrichment (6-mer frequency, TF over GST control)

Sequence | binding signal
ATGCGC | 1.14
TAACGC | 1.63
AGCATT | 1.32
CCCAAC | 0.88
CGCCTG | 0.873
TTGCTG | 1.26
GGAAAA | 0.943
CTCGAA | 1.9
AGTGGC | 1
CCAAAC | 0.895
TGGATA | 1.34
TTCGCC | 1
GTCCCA | 0.912
GTTCAC | 0.821
ACACGC | 0.813
CTGCTT | 1.69
CATTCG | 1.14
CCCGGC | 0.875
ACCATC | 0.953
ACTATA | 1.4

Sequence | binding signal
TGATGA | 1.24
ATCCAT | 1.55
CCATAC | 0.944
TGATGT | 1.05
CGCAAC | 0.725
CGAACA | 1.1
ATGGGG | 1.03
AAAGGC | 1.03
GGCACT | 0.91
TGTTTC | 1.17
AGGTCT | 1.21
GCGTCC | 0.78
GTCCCG | 0.833
GAAGAA | 0.936
TACGAC | 1.25
CACTAC | 0.937
TTAGCA | 2.38
CCATCC | 0.875
TCCATG | 1.13
TCTATG | 1.11

8 entries from above, as tab-separated lines:
Sequence	binding signal
AGTGGC	1
CCAAAC	0.895
TGGATA	1.34
TTCGCC	1
GTCCCA	0.912
GTTCAC	0.821
ACACGC	0.813
CTGCTT	1.69
